In article PMC7237644:
These are yes or no findings as the source states them, for the method shown. Binding seen in cells or lysates may run through a third protein. Some results given as binding are weak or reduced against the parent protein; the word gives no strength.

Chains of the proteins cited; added tags and fusions are not shown. Residues count along the entry.
UniProt P19838, residues 1-433: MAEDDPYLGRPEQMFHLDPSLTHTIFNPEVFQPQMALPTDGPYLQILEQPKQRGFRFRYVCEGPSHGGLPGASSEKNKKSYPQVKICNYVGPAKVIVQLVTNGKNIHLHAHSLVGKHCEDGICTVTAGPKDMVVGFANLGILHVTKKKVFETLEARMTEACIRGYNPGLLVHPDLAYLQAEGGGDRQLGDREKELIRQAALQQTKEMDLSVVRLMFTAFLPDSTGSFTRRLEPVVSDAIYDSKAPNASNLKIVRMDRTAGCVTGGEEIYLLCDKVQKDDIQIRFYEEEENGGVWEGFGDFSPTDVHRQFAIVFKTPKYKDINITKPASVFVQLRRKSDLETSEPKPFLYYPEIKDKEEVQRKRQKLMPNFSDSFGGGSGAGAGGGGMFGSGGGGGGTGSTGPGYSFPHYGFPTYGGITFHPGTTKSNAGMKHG
UniProt Q04206: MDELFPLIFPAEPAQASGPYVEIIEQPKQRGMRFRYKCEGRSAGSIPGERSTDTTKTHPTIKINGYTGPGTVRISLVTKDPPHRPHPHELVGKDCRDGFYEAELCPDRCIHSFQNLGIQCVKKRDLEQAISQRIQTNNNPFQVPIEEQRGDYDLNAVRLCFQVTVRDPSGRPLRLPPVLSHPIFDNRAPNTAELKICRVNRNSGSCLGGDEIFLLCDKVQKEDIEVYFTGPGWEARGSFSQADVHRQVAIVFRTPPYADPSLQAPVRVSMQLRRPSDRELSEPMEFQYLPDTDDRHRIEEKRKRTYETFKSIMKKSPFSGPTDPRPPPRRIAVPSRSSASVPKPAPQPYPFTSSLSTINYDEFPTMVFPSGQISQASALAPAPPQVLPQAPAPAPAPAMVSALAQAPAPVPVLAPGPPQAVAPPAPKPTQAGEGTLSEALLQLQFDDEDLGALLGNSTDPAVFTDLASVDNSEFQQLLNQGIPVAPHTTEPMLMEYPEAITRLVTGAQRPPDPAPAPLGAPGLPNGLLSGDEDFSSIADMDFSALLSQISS

Target: p50, Flag-tagged (pFlag-p50 / p50-Flag) (UniProt P19838)
Experiment: co-IP; HEK293T cotransfected with tagged plasmids, 24 h; RIPA lysis at 4°C; lysate with anti-Flag, anti-HA, anti-Myc (or anti-EYFP) antibody or control mouse IgG and protein A/G PLUS-Agarose at 4°C overnight; washed with PBS; Western blot

p65-EYFP (pp65-EYFP) (from UniProt Q04206 1-551)
binding: binds
